Reference: the supplement of paper PMC4604168 (melanoma cell lines)
Some of the results follow. Many values rest on one well or one pass, so single values are uncertain.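 Cells were imaged in 1,536-well plates, and nuclei stained with an antibody against cleaved PARP were counted against all DNA-stained nuclei to give the apoptosis fraction. Screening doses were chosen to leave most cells alive, and resting and induced cleaved-PARP levels differ strongly between cell lines.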

These compounds were tested on WM1745 (assay: cleaved PARP positive nuclei fraction relative to DMSO control; melanoma cells; higher = more apoptosis). Details: library dose: low library concentration; 72 h.
For CC1(C)NC(=O)N(c2ccc([N+](=O)[O-])c(C(F)(F)F)c2)C1=O [nilutamide] + O=C(O)c1ccc(-c2c[nH]c3ncc(-c4ccccc4)cc23)cc1C1CCCC1 [GSK650394] (first compound 1 µM, partner dose 0.16 µM), the “cleaved PARP positive nuclei fraction” value was 96.8%. In the case of NC(=O)Nc1cc(-c2cccc(F)c2)sc1C(=O)N[C@H]1CCCNC1 + OCCn1cc(-c2cnc3nnn(Cc4ccc5ncccc5c4)c3n2)cn1 [PF04217903] (first compound 0.02 µM, partner dose 1 µM), the “cleaved PARP positive nuclei fraction” value is reported as 102%. In the case of C[C@@H]1CCN(C(=O)CC#N)C[C@@H]1N(C)c1ncnc2[nH]ccc12 + COC(=O)c1sccc1S(=O)(=O)Nc1ccc(Nc2ccccc2)cc1OC [GSK0660] (first compound 1 µM, partner dose 1 µM), the “cleaved PARP positive nuclei fraction” value is reported as 319%. In the case of CC(=O)c1c(C)c2cnc(Nc3ccc(N4CCNCC4)cn3)nc2n(C2CCCC2)c1=O [palbociclib] + CO[C@@H]1[C@H](N(C)C(=O)c2ccccc2)C[C@H]2O[C@]1(C)n1c3ccccc3c3c4c(c5c6ccccc6n2c5c31)C(=O)NC4 [Midostaurin] (first compound 0.04 µM, partner dose 0.08 µM), the “cleaved PARP positive nuclei fraction” value is reported as 119%. Cc1nc(Nc2ncc(C(=O)Nc3c(C)cccc3Cl)s2)cc(N2CCN(CCO)CC2)n1 [dasatanib] + COc1cc2c(Oc3ccc4[nH]c(C)cc4c3F)ncnc2cc1OCCCN1CCCC1 [cediranib] (first compound 0.004 µM, partner dose 0.4 µM) was tested, and the “cleaved PARP positive nuclei fraction” value was 128%. OCc1c[nH]c2ccccc12 [Indole-3-carbinol] + CO[C@@H]1[C@H](N(C)C(=O)c2ccccc2)C[C@H]2O[C@]1(C)n1c3ccccc3c3c4c(c5c6ccccc6n2c5c31)C(=O)NC4 [Midostaurin] (first compound 0.8 µM, partner dose 0.08 µM) was tested, and the “cleaved PARP positive nuclei fraction” value was 119%. For C=CCNC1=C2C[C@@H](C)C[C@H](OC)[C@H](O)[C@@H](C)/C=C(\C)[C@H](OC(N)=O)[C@@H](OC)/C=C\C=C(/C)C(=O)NC(=CC1=O)C2=O [Tanespimycin] + Cc1cc([N+](=O)[O-])ccc1NS(=O)(=O)c1cc(Cl)ccc1Cl [FH535] (first compound 0.002 µM, partner dose 1 µM), the “cleaved PARP positive nuclei fraction” value was 121%. With Cc1cc(N2CCOCC2)cc2[nH]c(-c3c(NC[C@@H](O)c4cccc(Cl)c4)cc[nH]c3=O)nc12 + C[C@@H]1CCN(C(=O)CC#N)C[C@@H]1N(C)c1ncnc2[nH]ccc12 [CP690550] (first compound 0.2 µM, partner dose 1 µM) the “cleaved PARP positive nuclei fraction” value was 132%. For O=C(CCCCCCC(=O)Nc1ccccc1)NO [vorinostat] + C[C@@H]1CCN(C(=O)CC#N)C[C@@H]1N(C)c1ncnc2[nH]ccc12 [CP690550] (first compound 0.08 µM, partner dose 1 µM), the “cleaved PARP positive nuclei fraction” value was 86.5%. In the case of Cc1cc(N2CCOCC2)cc2[nH]c(-c3c(NC[C@@H](O)c4cccc(Cl)c4)cc[nH]c3=O)nc12 + CCc1ccc(CCOc2ccc(CC3SC(=O)NC3=O)cc2)nc1 [pioglitazone] (first compound 0.2 µM, partner dose 2 µM), the “cleaved PARP positive nuclei fraction” value is reported as 129%. O=C(CCCCCCC(=O)Nc1ccccc1)NO [vorinostat] + OCCn1cc(-c2cnc3nnn(Cc4ccc5ncccc5c4)c3n2)cn1 [PF04217903] (first compound 0.08 µM, partner dose 1 µM) was tested, and the “cleaved PARP positive nuclei fraction” value was 78.2%. In the case of Cc1cc(N2CCOCC2)cc2[nH]c(-c3c(NC[C@@H](O)c4cccc(Cl)c4)cc[nH]c3=O)nc12 + Cc1cc([N+](=O)[O-])ccc1NS(=O)(=O)c1cc(Cl)ccc1Cl [FH535] (first compound 0.2 µM, partner dose 1 µM), the “cleaved PARP positive nuclei fraction” value is reported as 165%. In the case of CC(=O)c1c(C)c2cnc(Nc3ccc(N4CCNCC4)cn3)nc2n(C2CCCC2)c1=O [palbociclib] + Nc1cccc2c1CN(C1CCC(=O)NC1=O)C2=O [lenalidomide] (first compound 0.04 µM, partner dose 1 µM), the “cleaved PARP positive nuclei fraction” value is reported as 143%. C=CCNC1=C2C[C@@H](C)C[C@H](OC)[C@H](O)[C@@H](C)/C=C(\C)[C@H](OC(N)=O)[C@@H](OC)/C=C\C=C(/C)C(=O)NC(=CC1=O)C2=O [Tanespimycin] + COC(=O)c1sccc1S(=O)(=O)Nc1ccc(Nc2ccccc2)cc1OC [GSK0660] (first compound 0.002 µM, partner dose 1 µM) was tested, and the “cleaved PARP positive nuclei fraction” value was 83.2%.
